{"source": "patent US11261187B2", "about": "“Compounds and methods for targeting HSP90” (Duke University, priority 2016, dated 2022)", "tested_on": "MMTV-neu spontaneous mammary tumor", "assay": "Cryo-imaging and histology of MMTV-neu spontaneous mammary tumor mice", "type": "in vivo, mouse", "source_text": "[…] Slices of 5-μm thickness were cut and placed on slides to dry overnight. Slides were then deparaffinized and either H&E stained or rehydrated and stained with DAPI before mounting. Slides were imaged at 20× magnification on a Zeiss Axio Imager widefield fluorescence microscope equipped with a color camera.\nTo investigate the tumor specificity and eHsp90 internalization in a more relevant model of human breast cancer, the MMTV-neu spontaneous mammary tumor mouse model was used (FIGS. 4c-d). […] Following cryoslicing, each 40 μm slice was imaged for fluorescence and brightfield. […] Previous studies have reported the autofluorescence of Leydig cells in the testes due to the presence of a lipophilic pigment.", "note": "At least one compound was matched to its structure with a doubt left."}
{"smiles": "Cc1nn(-c2ccc(C(N)=O)c(NCCCOCCOCCOCCOCCOCCCNCc3ccc(C(=C\\C=C4\\N(CCCCS(=O)(=O)O)c5ccccc5C4(C)C)/C=C/C4=[N+](CCCCS(=O)(=O)[O-])c5ccccc5C4(C)C)cc3)c2)c2c1C(=O)CC(C)(C)C2", "note": "[Compound 100, 4-(2-((1E,3Z)-3-(4-(21-((2-carbamoyl-5-(3,6,6-trimethyl-4-oxo-4,5,6,7-tetrahydro-1H-indazol-1-yl)phenyl)amino)-6,9,12,15,18-pentaoxa-2-azahenicosyl)phenyl)-5-((Z)-3,3-dimethyl-1-(4-sulfobutyl)indolin-2-ylidene)penta-1,3-dien-1-yl)-3,3-dimethyl-3H-indol-1-ium-1-yl)butane-1-sulfonate]", "values": [{"measurement": "probe uptake in MMTV-neu mammary tumor", "setting": "25 nmol i.v., 6 hours, cryoslicing and histology", "result": "confined to the tumor"}, {"measurement": "specific drug fluorescence in duct epithelium of tumor cells (histology)", "setting": "FIG. 5, serial sections, DAPI/Cy5", "result": "Specific drug fluorescence is observed in duct epithelium of tumor cells"}]}
